Results are given in words; binding and its absence hold for the method and conditions named. A result given as binding can be weak or reduced; the word gives no strength.

The target in test [1] is cynomolgus BTLA (cynomolgus). Description: Fortebio assay as named; BTLA coupled to CM5 biosensor chip, antibody 0.12-90 nM injected (SPR). A general note: BLI is a label-free optical method that tracks binding on a fibre tip over time.
The target of test [2] is cynomolgus BTLA (cynomolgus). Description: OD 450 nm against log ng/mL of antibody (ELISA-type readout as drawn; Example 11 describes a Fortebio/SPR chip assay with BTLA coupled to the chip). (In an ELISA, binding on a coated surface is turned into a signal by an enzyme label.)

B1: humanized anti-BTLA antibody hu17 (antibody, V domains shown)
VH: QVQLVQSGAEVKKPGASVKLSCKASGYNFKHTYAHWVRQAPGQGLEWIGRIDPANGNTKYDPKFQGRATMTADTASNTAYLELSSLRSEDTAVYYCVADHYGSSLLDYWGQGTLVTVSS
VL: DIVMTQTPLSLSVTPGQPASISCKSSQSLLDSDGKTYLNWFQQRPGQSPRRLIYLVSKLDSGVPDRFSGSGSGTDFTLKISRVEAEDVGVYYCWQGTYFPYTFGQGTKLEIK
For B1, the binding result in test [1] and in test [2] was “binds” each time.

For the origin of these results see patent US20230192854A1.
